These are yes or no findings as the source states them, for the method shown. For some assays here: Binding seen in cells or lysates may run through a third protein. Some results given as binding are weak or reduced against the parent protein; the word gives no strength. For some assays here: Where a sequence is shown, tags or fusion partners need not be part of it.
What was measured:
[1] = molecular target: T1, LexA-Rpb4 (S. cerevisiae) (UniProt P20433); assay: two-hybrid; LexA fusion as bait (pLex202), B42 fusions as preys (pJG4-5), reporter strain MY290; serial dilutions spotted on medium selective for the plasmids and indicative of an interaction (-L)
T1 sequence: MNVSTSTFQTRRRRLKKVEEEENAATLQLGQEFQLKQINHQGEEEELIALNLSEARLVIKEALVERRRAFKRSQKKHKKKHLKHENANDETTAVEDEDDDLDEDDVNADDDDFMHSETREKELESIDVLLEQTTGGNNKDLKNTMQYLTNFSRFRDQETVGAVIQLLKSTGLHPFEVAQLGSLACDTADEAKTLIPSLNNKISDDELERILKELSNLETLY

The chains behind the UniProt entries cited, without tags or fusion partners.
UniProt P08518: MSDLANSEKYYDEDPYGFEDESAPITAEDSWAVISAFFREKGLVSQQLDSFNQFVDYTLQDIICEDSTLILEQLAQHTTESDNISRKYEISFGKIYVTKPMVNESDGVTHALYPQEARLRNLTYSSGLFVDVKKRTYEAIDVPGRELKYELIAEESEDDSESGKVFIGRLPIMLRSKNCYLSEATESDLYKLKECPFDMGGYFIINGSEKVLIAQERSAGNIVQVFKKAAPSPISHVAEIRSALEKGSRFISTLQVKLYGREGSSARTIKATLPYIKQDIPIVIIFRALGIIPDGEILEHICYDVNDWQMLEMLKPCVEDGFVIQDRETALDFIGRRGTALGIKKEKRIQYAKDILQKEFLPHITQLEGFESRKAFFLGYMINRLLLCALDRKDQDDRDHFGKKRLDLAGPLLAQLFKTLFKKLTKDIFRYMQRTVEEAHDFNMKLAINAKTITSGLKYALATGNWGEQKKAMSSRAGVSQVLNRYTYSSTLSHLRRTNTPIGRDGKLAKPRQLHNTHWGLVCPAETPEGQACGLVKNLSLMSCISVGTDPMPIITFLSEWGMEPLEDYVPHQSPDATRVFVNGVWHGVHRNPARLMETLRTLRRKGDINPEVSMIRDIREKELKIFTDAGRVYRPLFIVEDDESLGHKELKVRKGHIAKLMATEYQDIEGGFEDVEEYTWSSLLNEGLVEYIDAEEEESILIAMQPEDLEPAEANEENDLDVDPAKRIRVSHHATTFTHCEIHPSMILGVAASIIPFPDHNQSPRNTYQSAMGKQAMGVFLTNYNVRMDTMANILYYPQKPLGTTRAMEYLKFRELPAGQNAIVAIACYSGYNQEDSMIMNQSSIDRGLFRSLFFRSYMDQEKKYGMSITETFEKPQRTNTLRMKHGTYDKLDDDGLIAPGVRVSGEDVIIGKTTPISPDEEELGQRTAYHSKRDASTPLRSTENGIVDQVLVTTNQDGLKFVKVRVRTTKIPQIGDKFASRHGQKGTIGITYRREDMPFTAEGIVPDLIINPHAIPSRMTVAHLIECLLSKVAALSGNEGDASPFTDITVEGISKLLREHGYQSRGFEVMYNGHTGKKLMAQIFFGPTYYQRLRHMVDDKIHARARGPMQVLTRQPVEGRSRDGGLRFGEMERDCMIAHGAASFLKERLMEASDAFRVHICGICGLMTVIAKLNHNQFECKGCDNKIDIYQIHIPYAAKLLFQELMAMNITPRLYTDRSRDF
UniProt P38902: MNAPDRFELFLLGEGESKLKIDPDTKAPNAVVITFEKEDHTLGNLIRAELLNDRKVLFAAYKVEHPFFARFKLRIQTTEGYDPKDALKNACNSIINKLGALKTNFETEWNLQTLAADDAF
UniProt Q03940: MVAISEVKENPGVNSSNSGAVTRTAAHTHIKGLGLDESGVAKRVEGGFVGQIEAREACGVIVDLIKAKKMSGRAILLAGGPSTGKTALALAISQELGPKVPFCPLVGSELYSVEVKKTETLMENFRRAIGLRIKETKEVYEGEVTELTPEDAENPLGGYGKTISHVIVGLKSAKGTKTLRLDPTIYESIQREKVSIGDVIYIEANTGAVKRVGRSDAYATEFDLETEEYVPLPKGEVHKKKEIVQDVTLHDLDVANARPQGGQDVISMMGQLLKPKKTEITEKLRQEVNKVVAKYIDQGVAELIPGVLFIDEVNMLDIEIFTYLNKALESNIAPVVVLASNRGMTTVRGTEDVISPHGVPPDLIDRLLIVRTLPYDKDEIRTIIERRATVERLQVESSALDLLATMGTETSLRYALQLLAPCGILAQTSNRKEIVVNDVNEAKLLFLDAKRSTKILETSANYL
UniProt Q12464: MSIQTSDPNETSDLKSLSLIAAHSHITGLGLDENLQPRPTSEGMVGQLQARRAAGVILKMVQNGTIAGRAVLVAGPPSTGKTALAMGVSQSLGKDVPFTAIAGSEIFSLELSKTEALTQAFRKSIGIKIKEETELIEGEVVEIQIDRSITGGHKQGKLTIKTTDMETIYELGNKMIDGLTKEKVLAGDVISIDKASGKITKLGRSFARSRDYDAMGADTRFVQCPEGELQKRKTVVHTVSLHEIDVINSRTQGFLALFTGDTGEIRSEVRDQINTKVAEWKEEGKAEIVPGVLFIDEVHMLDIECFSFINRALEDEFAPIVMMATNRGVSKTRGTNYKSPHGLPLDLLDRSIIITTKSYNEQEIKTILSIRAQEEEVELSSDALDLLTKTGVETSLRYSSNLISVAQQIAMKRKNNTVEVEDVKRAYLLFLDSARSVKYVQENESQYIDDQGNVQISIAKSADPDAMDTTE
UniProt P32497: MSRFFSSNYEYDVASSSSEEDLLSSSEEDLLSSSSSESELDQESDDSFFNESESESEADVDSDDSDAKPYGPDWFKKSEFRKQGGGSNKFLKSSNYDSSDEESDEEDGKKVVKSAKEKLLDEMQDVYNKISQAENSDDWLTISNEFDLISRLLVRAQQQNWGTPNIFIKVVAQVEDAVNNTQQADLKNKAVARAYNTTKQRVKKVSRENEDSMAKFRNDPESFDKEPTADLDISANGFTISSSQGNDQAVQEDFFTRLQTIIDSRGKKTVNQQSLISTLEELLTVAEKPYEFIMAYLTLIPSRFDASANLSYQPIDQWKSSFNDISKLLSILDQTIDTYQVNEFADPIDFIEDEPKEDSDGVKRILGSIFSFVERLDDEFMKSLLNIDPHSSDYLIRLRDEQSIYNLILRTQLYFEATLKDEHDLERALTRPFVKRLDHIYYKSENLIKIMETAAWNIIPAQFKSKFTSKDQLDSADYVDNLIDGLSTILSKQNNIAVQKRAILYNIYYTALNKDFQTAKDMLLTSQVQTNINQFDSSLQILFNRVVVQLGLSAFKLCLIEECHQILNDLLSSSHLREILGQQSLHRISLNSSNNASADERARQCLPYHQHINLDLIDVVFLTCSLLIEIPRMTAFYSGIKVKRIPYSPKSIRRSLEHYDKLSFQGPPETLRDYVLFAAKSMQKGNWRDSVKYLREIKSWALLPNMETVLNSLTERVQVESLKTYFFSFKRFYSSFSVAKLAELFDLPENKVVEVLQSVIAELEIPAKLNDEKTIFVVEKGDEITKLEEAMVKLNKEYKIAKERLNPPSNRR
UniProt P06103: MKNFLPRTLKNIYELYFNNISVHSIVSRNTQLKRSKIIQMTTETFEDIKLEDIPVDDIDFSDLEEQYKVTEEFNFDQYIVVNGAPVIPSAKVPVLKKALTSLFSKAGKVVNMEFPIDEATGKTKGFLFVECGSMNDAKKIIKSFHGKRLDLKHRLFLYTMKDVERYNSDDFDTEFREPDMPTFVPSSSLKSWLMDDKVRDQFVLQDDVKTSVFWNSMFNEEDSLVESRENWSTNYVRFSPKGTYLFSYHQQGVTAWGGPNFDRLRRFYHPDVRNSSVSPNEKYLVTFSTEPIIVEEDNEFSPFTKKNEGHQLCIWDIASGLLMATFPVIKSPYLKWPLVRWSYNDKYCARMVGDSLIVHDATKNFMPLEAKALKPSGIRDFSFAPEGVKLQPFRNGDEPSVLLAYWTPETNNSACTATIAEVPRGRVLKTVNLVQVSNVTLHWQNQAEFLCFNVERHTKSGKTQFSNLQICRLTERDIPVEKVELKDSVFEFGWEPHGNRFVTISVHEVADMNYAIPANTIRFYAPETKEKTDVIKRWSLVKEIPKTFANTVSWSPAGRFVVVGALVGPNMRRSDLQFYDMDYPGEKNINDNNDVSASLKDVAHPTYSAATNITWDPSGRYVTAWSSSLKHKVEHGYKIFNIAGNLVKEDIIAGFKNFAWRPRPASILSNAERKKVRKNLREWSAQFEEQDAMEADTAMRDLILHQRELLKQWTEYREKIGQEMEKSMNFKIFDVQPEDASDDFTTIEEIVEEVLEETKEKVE
UniProt P04456: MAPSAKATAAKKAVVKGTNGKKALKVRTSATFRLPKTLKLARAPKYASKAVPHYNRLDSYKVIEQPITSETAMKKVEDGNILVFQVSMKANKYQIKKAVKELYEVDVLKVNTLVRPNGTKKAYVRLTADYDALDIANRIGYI
UniProt P04050: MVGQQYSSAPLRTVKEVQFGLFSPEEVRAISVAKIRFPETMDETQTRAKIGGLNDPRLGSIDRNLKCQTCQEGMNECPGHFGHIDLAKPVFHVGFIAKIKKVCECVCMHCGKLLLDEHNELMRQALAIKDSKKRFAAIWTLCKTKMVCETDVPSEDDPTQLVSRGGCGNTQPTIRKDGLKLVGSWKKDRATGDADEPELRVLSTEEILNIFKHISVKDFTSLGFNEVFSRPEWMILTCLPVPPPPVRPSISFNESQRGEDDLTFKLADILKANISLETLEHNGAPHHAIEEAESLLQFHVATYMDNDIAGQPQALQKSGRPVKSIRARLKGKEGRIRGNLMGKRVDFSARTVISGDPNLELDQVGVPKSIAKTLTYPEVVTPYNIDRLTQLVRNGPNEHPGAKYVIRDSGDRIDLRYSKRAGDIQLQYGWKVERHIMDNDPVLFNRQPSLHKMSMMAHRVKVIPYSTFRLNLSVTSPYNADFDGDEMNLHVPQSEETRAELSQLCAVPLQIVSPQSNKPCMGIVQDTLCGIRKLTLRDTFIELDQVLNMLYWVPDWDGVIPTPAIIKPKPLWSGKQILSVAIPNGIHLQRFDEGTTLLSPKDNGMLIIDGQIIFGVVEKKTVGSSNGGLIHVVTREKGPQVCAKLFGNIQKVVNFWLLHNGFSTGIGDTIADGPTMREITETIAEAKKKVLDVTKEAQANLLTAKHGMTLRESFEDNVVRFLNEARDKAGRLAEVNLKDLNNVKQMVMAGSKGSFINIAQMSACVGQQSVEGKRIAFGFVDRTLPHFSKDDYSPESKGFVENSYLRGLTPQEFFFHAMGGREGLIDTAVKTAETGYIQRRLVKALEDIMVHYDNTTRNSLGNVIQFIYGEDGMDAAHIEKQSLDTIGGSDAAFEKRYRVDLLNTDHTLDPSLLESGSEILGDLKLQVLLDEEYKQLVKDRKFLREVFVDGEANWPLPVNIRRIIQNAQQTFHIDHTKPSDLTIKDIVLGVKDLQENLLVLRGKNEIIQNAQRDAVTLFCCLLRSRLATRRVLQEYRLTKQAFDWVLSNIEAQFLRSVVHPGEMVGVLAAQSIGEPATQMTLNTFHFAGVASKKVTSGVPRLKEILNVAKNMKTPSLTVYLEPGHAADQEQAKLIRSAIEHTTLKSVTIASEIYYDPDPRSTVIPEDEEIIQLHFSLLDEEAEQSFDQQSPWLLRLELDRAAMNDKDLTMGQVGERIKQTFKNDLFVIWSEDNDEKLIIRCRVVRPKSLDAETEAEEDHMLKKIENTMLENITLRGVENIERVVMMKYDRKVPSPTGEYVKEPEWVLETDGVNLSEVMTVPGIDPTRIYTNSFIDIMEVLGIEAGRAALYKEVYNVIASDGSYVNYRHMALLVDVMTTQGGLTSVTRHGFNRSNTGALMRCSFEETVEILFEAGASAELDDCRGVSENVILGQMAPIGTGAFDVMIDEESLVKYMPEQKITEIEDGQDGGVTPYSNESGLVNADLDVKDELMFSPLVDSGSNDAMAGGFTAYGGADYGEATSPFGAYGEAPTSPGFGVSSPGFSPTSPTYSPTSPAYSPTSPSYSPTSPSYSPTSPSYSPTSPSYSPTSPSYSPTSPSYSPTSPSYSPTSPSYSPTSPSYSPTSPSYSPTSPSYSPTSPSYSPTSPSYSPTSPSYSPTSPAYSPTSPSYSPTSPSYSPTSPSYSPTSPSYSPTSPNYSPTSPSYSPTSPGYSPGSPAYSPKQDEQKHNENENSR

[2] = molecular target: T2, LexA-Rpb7 (S. cerevisiae) (UniProt P34087); assay: as above
T2 sequence: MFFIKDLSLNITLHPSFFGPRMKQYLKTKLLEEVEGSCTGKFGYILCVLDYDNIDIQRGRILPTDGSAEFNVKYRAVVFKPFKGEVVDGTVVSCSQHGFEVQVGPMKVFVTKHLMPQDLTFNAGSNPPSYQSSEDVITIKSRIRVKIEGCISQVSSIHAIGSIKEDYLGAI

[3] = molecular target: Not1-TT (S. cerevisiae) (UniProt P25655); assay: co-IP; Tap-tagged protein captured from 4 mg of total yeast extract on IgG sepharose in IP buffer (40 mM HEPES-KOH pH 8.0, 100 mM KCl, 150 mM potassium acetate, 1 mM EDTA, 10% glycerol), eluted with TEV protease, SDS-PAGE and western blot; extracts of wild-type or not5Δ cells, with RNaseA where indicated
[4] = molecular target: Rpb2-TT (S. cerevisiae) (UniProt P08518); assay: as above
[5] = molecular target: Rpb11-TT (S. cerevisiae) (UniProt P38902); assay: co-IP; single-step affinity purification of a Tap-tagged RNA Pol II subunit from 4 mg of total protein of wild-type or not5Δ cells; eluate on Native PAGE 3-12% Bis-Tris gels or SDS-PAGE, western blot with anti-CBP or anti-Rpb1
[6] = molecular target: T3, Tap-tagged Pih1 (S. cerevisiae) (UniProt P38768); assay: co-IP; Tap-tagged protein captured from 4 mg of total yeast extract on IgG sepharose in IP buffer (40 mM HEPES-KOH pH 8.0, 100 mM KCl, 150 mM potassium acetate, 1 mM EDTA, 10% glycerol), eluted with TEV protease, SDS-PAGE and western blot; extracts of wild-type or not5Δ cells, with RNaseA where indicated
T3 sequence: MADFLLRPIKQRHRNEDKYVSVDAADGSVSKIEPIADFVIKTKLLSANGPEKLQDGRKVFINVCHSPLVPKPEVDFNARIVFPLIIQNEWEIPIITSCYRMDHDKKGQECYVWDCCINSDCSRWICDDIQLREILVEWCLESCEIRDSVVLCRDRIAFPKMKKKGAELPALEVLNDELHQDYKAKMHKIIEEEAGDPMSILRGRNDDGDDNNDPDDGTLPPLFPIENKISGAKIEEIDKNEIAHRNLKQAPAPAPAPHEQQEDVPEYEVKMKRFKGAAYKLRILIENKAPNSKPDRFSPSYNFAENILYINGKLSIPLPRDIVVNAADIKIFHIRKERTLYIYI

[7] = molecular target: Rvb1-TT (S. cerevisiae) (UniProt Q03940); assay: as above
[8] = molecular target: Rvb2-TT (S. cerevisiae) (UniProt Q12464); assay: as above

Q: With B42-Nip1 (from UniProt P32497 1-812) as the substance, how does the binding [1] read?
A: binds

Q: And the binding [2]?
A: binds

Q: Which binding [3] does the source give for “HA-tagged Prt1 (from UniProt P06103 1-763)” here?
A: binds

Q: Which binding [4] does the source give for “HA-tagged Rpl25 (from UniProt P04456 1-142)” here?
A: binds

Q: Which binding [5] does the source give for Rpb1 (from UniProt P04050 1-1733) here?
A: binds

Q: And the binding [6]?
A: binds

Q: And the binding [7]?
A: binds

Q: And the binding [8]?
A: binds

— PMC4207488
